Measurements reported in PubChem BioAssay AID504804 (Drosophila RNAi Screening Center, 2011)

Screen: 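dsRNAs that improve Kc cell survival under doxorubicin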 (primary screen)
Cell system: Drosophila Kc cells
Knock-down reagent: long dsRNA against Drosophila genes, 0.5 µg dsRNA per well
Time to read-out: 96 h (48 h knock-down, then 48 h drug)
Treatment: doxorubicin 5 µg/ml for 48 h, added 48 h after dsRNA
Read-out: 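Viability measured as cellular ATP by luminescence after 48 h knock-down then 48 h doxorubicin at 5 µg/ml; unnormalised plate counts for each replicate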
Scale: raw ATP luminescence: higher = more viable cells, protection from doxorubicin
Hit rule: 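z-score of 2 or more over plate mean in both duplicates, retained only when retests and separate dsRNAs confirm the protection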
The screen tested about 19,000 reagents; this is an unselected part of those with a known target gene and a result. Of all reagents, 47 (0.25%) are marked active. 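Signals are raw, not normalised; exact z-scores behind calls not deposited; actives needed confirmation, so some wells reaching 2 SD are inactive.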 Names joined by + are all predicted targets of the reagent.

The opening 9 entries, to show the layout:
no.	target	dsRNA	SD above plate mean	raw ATP luminescence, replicate 1	raw ATP luminescence, replicate 2	outcome
1	Syt14 (GeneID 40544)	DRSC12331		81093	69153	inactive
2	CG5662 (GeneID 32450)	DRSC19957		1.36e5	1.85e5	inactive
3	Col4a1 (GeneID 33727)	DRSC03291		80880	66403	inactive
4	CG11141 (GeneID 35672)	DRSC06048		81593	58097	inactive
5	inaD (GeneID 37629)	DRSC04694		38067	47237	inactive
6	Lasp (GeneID 39864)	DRSC10379		96440	61020	inactive
7	alpha4GT1 (GeneID 33512)	DRSC00488		1.11e5	82283	inactive
8	CG4945 (GeneID 36850)	DRSC06904		44343	61313	inactive
9	CG32087 (GeneID 39323)	DRSC10806		94903	68793	inactive

Main list, from the start:
no.	target	dsRNA	SD above plate mean	raw ATP luminescence, replicate 1	raw ATP luminescence, replicate 2	outcome
1	Syt14 (GeneID 40544)	DRSC12331		81093	69153	inactive
2	CG5662 (GeneID 32450)	DRSC19957		1.36e5	1.85e5	inactive
3	Col4a1 (GeneID 33727)	DRSC03291		80880	66403	inactive
4	CG11141 (GeneID 35672)	DRSC06048		81593	58097	inactive
5	inaD (GeneID 37629)	DRSC04694		38067	47237	inactive
6	Lasp (GeneID 39864)	DRSC10379		96440	61020	inactive
7	alpha4GT1 (GeneID 33512)	DRSC00488		1.11e5	82283	inactive
8	CG4945 (GeneID 36850)	DRSC06904		44343	61313	inactive
9	CG32087 (GeneID 39323)	DRSC10806		94903	68793	inactive
10	Ppox (GeneID 42939)	DRSC17033		48840	58620	inactive
11	CG8321 (GeneID 36287)	DRSC07148		66573	54933	inactive
12	RluA-2 (GeneID 34440)	DRSC02939		96383	62103	inactive
13	ND2 (retired record) (GeneID 192474)	DRSC21274		3.49e5	3.01e5	inactive
14	Oatp74D (GeneID 39954)	DRSC09491		76463	87660	inactive
15	Oatp74D (GeneID 39954)	DRSC10883		38560	33733	inactive
16	CG34202 (GeneID 5740498)	DRSC05907		64273	41267	inactive
17	CG10347 (GeneID 32141)	DRSC19352		3.01e5	3.16e5	inactive
18	Phm (GeneID 37823)	DRSC04639		77773	94867	inactive
19	Rac2 (GeneID 38831)	DRSC11262	at least 2 SD above plate mean	1.04e5	1.07e5	inactive
20	Eogt (GeneID 33424)	DRSC00727		86787	61087	inactive
21	CG4456 + Hsp22	DRSC11187		90740	73123	inactive
22	CG4456 + Hsp22	DRSC11192		39313	41007	inactive
23	CG42249 (GeneID 32043)	DRSC19383		3.37e5	3.64e5	inactive
24	CG42249 (GeneID 32043)	DRSC19826		3.29e5	3.05e5	inactive
25	Ms (GeneID 44324)	DRSC16041		46013	48960	inactive
26	Paip2 (GeneID 41591)	DRSC14504		67353	29383	inactive
27	Cyp4p2 (GeneID 35946)	DRSC07373		55443	74773	inactive
28	Fer2 (GeneID 41961)	DRSC15925		93760	80020	inactive
29	Arf1 (GeneID 40506)	DRSC11606		28073	34607	inactive
30	Sod2 (GeneID 36878)	DRSC07554		68467	61873	inactive
31	RhoL (GeneID 41136)	DRSC16824		52010	31853	inactive
32	tou (GeneID 36241)	DRSC06006		57607	64403	inactive
33	CG1902 (GeneID 35993)	DRSC06798		63310	47267	inactive
34	CG12320 (GeneID 42189)	DRSC14498		56660	75850	inactive
35	Ubc87F (GeneID 41682)	DRSC16513		65100	65500	inactive
36	beta4GalT7 (GeneID 42991)	DRSC14385		57410	66840	inactive
37	CG14609 (GeneID 40864)	DRSC12553		69160	75057	inactive
38	hydra (GeneID 33058)	DRSC20497		3.06e5	3.32e5	inactive
39	mus101 (GeneID 48309)	DRSC19388		2.18e5	2.52e5	inactive
40	CG8042 (GeneID 38886)	DRSC09676		39313	33140	inactive
41	CG1958 (GeneID 31661)	DRSC18196		35680	43340	inactive
42	Ald2 (GeneID 43189)	DRSC15799		75120	70860	inactive
43	CG17567 (retired record) (GeneID 50468)	DRSC02627		70253	62117	inactive
44	Atg1 (GeneID 39454)	DRSC09809		41057	44280	inactive
45	Atg1 (GeneID 39454)	DRSC09810		89677	83740	inactive
46	Yp1 (GeneID 31939)	DRSC18731		3.08e5	3.22e5	inactive
47	RpS20 (GeneID 42464)	DRSC16836		40320	41710	inactive
48	CG5674 (GeneID 35072)	DRSC02874		21917	20803	inactive
49	alpha-Est10 (GeneID 40896)	DRSC12613		64920	54367	inactive
50	ND-51 (GeneID 33852)	DRSC03145		76340	48337	inactive
51	MED11 (GeneID 40042)	DRSC10739		28103	12893	inactive
52	M6 (GeneID 40383)	DRSC11869		64877	66590	inactive
53	CG10877 (GeneID 42432)	DRSC14274		50960	61270	inactive
54	GILT2 (GeneID 42788)	DRSC14196		34117	29893	inactive
55	CG15563 (GeneID 43695)	DRSC15101		70630	56030	inactive
56	Upf3 (GeneID 37792)	DRSC04092		79177	65747	inactive
57	CG12519 (GeneID 40114)	DRSC10311		62560	64113	inactive
58	CG8837 (GeneID 33545)	DRSC00711		29160	27657	inactive
59	Or33c (GeneID 34603)	DRSC03388		50777	80717	inactive
60	CG43322 (GeneID 33984)	DRSC02280		30567	34523	inactive
61	CG32544 (GeneID 318082)	DRSC20033		2.42e5	2.54e5	inactive
62	CG1304 (GeneID 33074)	DRSC20494		2.88e5	3.37e5	inactive
63	Nil (GeneID 43185)	DRSC15953		59590	56840	inactive
64	RalGPS (GeneID 36881)	DRSC06941		57097	58817	inactive
65	Taldo (GeneID 37804)	DRSC04320		62917	58703	inactive
66	CG11247 (GeneID 40414)	DRSC11643		29810	25243	inactive
67	CG33758 (GeneID 3772381)	DRSC05158		74823	75097	inactive
68	CG42397 (GeneID 8673976)	DRSC09147		1.99e5	1.48e5	inactive
69	CG43328 (GeneID 246625)	DRSC05640		2.00e5	1.39e5	inactive
70	Pp1alpha-96A (GeneID 42922)	DRSC16795		62240	60270	inactive
71	Strn-Mlck (GeneID 36753)	DRSC05032		57313	62357	inactive
72	Strn-Mlck (GeneID 36753)	DRSC05598		43800	31727	inactive
73	CG14011 (GeneID 33790)	DRSC02343		31350	37113	inactive
74	CG30016 (GeneID 246393)	DRSC05242		90680	94023	inactive
75	CG13344 (GeneID 36541)	DRSC06378		66260	56267	inactive
76	CG15912 (GeneID 31385)	DRSC18105		43170	43490	inactive
77	Tsp42A (GeneID 35515)	DRSC04862		41317	42113	inactive
78	AsnRS (GeneID 35194)	DRSC01990		74737	51960	inactive
79	CG31259 (GeneID 41010)	DRSC14366		56597	57100	inactive
80	Nthl1 (GeneID 35365)	DRSC03183		48527	32967	inactive
81	CG1428 (GeneID 35433)	DRSC03708		63407	61277	inactive
82	Osi8 (GeneID 40762)	DRSC12277		55587	51800	inactive
83	CG15406 (GeneID 33542)	DRSC00420		33670	24213	inactive
84	Irk1 (GeneID 42742)	DRSC16106		55290	68130	inactive
